From article PMC12794343 come the findings set out here.

The target of the data set is YBX1 (endogenous, nuclear extract) (UniProt P67809). In words: EMSA. The conditions noted are these: 10 mM Tris-HCl pH 7.6, 50 mM KCl, 1 mM DTT, 10% glycerol, 200 ng/reaction poly(dI-dC), 100 nM probe, 10 ug nuclear extract, 30 min on ice, 5% native gel, 0.5x TBE, protein in an extract, label: Cy5 at both ends of the universal strand. Background: In EMSA bound probe runs differently from free probe, usually more slowly.

For at least one entry, the source does not settle the construct or the ends of the probe. At least one result comes from cells or an extract, where the contact may be indirect. A weaker result is weaker than the reference pair of the same experiment.

Regarding “GAAAAGAGAGGGGTGGGAAGGACGTTCCGTACACA / TGTGTACGGAACGTCCTTCCCACCCCTCTCTTTTCCCAGACCAGGGCAC / GTGCCCTGGTCTGG [YIR_Mut probe]”, the binding result (complex II abolished, complex I reduced versus YIR) was “binds more weakly”.

Take “GAAAAGAGAGGGGTGGGAAGGCATGGGGTGAAAAA / TTTTTCACCCCATGCCTTCCCACCCCTCTCTTTTCCCAGACCAGGGCAC / GTGCCCTGGTCTGG [YIR probe]”: the binding result (complexes I and II, both abolished with YKO extract, 50X cold probe removes II, reduces I) was “binds”.
